# Counter-ions that a name gives are not always drawn. ± gives the standard deviation of the averaged measurements. The list shows a part of the results. The data scatter; read single values as rough.
# Test system: hAMSC donor 2
# Experiment: Hoechst total cell count ratio vs vehicle control; hAMSC are human adipose-derived mesenchymal stem cells given an EGFP-luciferase plasmid by lipofection; higher = more cells (less toxicity)
# Conditions: priming compound concentration 1.7 µM
row,SMILES,Hoechst total cell count ratio
1,CN(CCOc1ccc(CC2SC(=O)NC2=O)cc1)c1ccccn1 (centres undefined) [Rosiglitazone maleate],1.73 ± 0.061
2,C[C@](N)(Cc1ccc(O)cc1)C(=O)O [alpha-Methyl-L-tyrosine],1.35 ± 0.06
3,COc1cc(OC)c(C(=O)CCCN2CCCC2)c(OC)c1 [Buflomedil hydrochloride],1.14 ± 0.06
4,COCCOC(=O)C1=C(C)NC(C)=C(C(=O)OC(C)C)C1c1cccc([N+](=O)[O-])c1 (centres undefined) [Nimodipine],1.32 ± 0.13
5,O=C(CCCN1CC=C(n2c(=O)[nH]c3ccccc32)CC1)c1ccc(F)cc1 [Droperidol],1.59 ± 0.15
6,CN1[C@@H]2CC[C@H]1C[C@@H](OC(=O)c1c[nH]c3ccccc13)C2 [Tropisetron hydrochloride],1.16 ± 0.12
7,CN1[C@@H](CC(=O)c2ccccc2)CCC[C@H]1C[C@H](O)c1ccccc1 [Lobeline hydrochloride],1.59 ± 0.2
8,CN(C)CCCC1(c2ccc(F)cc2)OCc2cc(C#N)ccc21 (centres undefined) [Citalopram hydrobromide],1.33 ± 0.067
9,CN(C)CCc1c[nH]c2ccc(Cn3cncn3)cc12 [Rizatriptan benzoate],1.25 ± 0.085
10,Nc1ncn([C@@H]2O[C@H](CO)[C@@H](O)[C@H]2O)c(=O)n1 [5-Azacytidine],0.985 ± 0.023
11,O=C(O)CCc1nc(-c2ccccc2)c(-c2ccccc2)o1 [Oxaprozin],1.44 ± 0.19
12,CN1CC(=O)N2[C@H](c3ccc4c(c3)OCO4)c3[nH]c4ccccc4c3C[C@@H]2C1=O [Tadalafil],1.28 ± 0.11
13,O=c1c(O[C@@H]2O[C@H](CO)[C@@H](O)[C@H](O)[C@H]2O)c(-c2ccc(O)c(O)c2)oc2cc(O)cc(O)c12 [Isoquercitrin],1.29 ± 0.062
14,CN(C)[C@@H]1C(O)=C(C(N)=O)C(=O)[C@@]2(O)C(O)=C3C(=O)c4c(O)ccc(Cl)c4[C@@H](O)[C@H]3C[C@@H]12 [Demeclocycline],1.34 ± 0.05
15,OCCN1CCN(CCCN2c3ccccc3Sc3ccc(C(F)(F)F)cc32)CC1 [Fluphenazine dihydrochloride],1.09 ± 0.12
16,CCN(CC)CCOc1ccc(C(=C(Cl)c2ccccc2)c2ccccc2)cc1 [Clomifene citrate],1.36 ± 0.097
17,N#Cc1ccc(C(c2ccc(C#N)cc2)n2cncn2)cc1 [Letrozole],1.45 ± 0.24
18,COc1cc([C@@H]2c3cc4c(cc3[C@@H](O[C@@H]3O[C@@H]5CO[C@@H](C)O[C@H]5[C@H](O)[C@H]3O)[C@H]3COC(=O)[C@H]23)OCO4)cc(OC)c1O [Etoposide],1.24 ± 0.11
19,C[C@]12C[C@H](O)[C@H]3[C@@H](CCC4=CC(=O)CC[C@@]43C)[C@@H]1CC[C@@H]2C(=O)CO [Corticosterone],1.81 ± 0.11
20,CCN1CCCC1CNC(=O)c1cc(S(=O)(=O)CC)c(N)cc1OC (centres undefined) [Amisulpride],1.12 ± 0.11

row,SMILES,Hoechst total cell count ratio
1,CN(C)CC[C@@H](c1ccc(Br)cc1)c1ccccn1 [Dexbrompheniramine maleate],1.08 ± 0.19
2,CC1=C(C/C=C(\C)CCC[C@H](C)CCC[C@H](C)CCCC(C)C)C(=O)c2ccccc2C1=O [Phylloquinone],1.26 ± 0.05
3,C[C@H](CS)C(=O)N1CCC[C@H]1C(=O)O [Captopril],1.5 ± 0.083
4,c1ccc2c(CC3=NCCN3)cccc2c1 [Naphazoline hydrochloride],1.02 ± 0.43
5,C[C@H]1O[C@@H](O[C@H]2[C@@H](O)C[C@H](O[C@H]3[C@@H](O)C[C@H](O[C@H]4CC[C@@]5(C)[C@H](CC[C@@H]6[C@@H]5C[C@@H](O)[C@]5(C)[C@@H](C7=CC(=O)OC7)CC[C@]65O)C4)O[C@@H]3C)O[C@@H]2C)C[C@H](O)[C@@H]1O [Digoxin],0.855 ± 0.076
6,CC#C[C@]1(O)CC[C@H]2[C@@H]3CCC4=CC(=O)CCC4=C3[C@@H](c3ccc(N(C)C)cc3)C[C@@]21C,1.55 ± 0.15
7,COc1ccccc1N1CCN(CC(O)COc2cccc3ccccc23)CC1 (centres undefined) [Naftopidil],1.27 ± 0.28
8,CN1CCN(c2nc3cc(C(F)(F)F)ccc3n3cccc23)CC1,1.39 ± 0.029
9,CC(C)[C@H](N)C(=O)OCCOCn1cnc2c(=O)nc(N)[nH]c21 [Valaciclovir hydrochloride],1.61 ± 0.059
10,O=c1[nH]cc(F)c(=O)[nH]1 [5-Fluorouracil],1.12 ± 0.21
11,CC1(C)S[C@@H]2[C@H](NC(=O)[C@H](N)c3ccc(O)cc3)C(=O)N2[C@H]1C(=O)O [Amoxicillin],1.11 ± 0.087
12,CN1CCC[C@H]1c1cccnc1 [Nicotine],1.17 ± 0.21
13,CC1(C)O[C@@H]2[C@@H](CO[C@@]3(COS(N)(=O)=O)OC(C)(C)O[C@@H]23)O1 [Topiramate],1.22 ± 0.16
14,Nc1ncnc2c1ncn2[C@@H]1O[C@H](CO)C[C@@H]1O [3'-Deoxydenosine],1.51 ± 0.17
15,O=C1c2c(O)cc(O)cc2O[C@H](c2ccc(O)c(O)c2)[C@H]1O (racemic) [Taxifolin-(+/-)],1.06 ± 0.11
16,O=C(c1ccccc1)c1ccc2n1CCC2C(=O)O (centres undefined) [Ketorolac tromethamine],1.23 ± 0.1
17,CC(=O)N[C@H]1[C@H]([C@H](O)[C@H](O)CO)OC(C(=O)O)=C[C@@H]1NC(=N)N [Zanamivir hydrate],1.05 ± 0.085
18,CCOc1cc(CC(=O)N[C@@H](CC(C)C)c2ccccc2N2CCCCC2)ccc1C(=O)O [Repaglinide],1.39 ± 0.26
19,CCn1cc(C(=O)O)c(=O)c2cc(F)c(N3CCN(C)CC3)cc21 [Pefloxacin mesylate],1.16 ± 0.18

# Copied from the list.
# Value of CN1CCN(c2nc3cc(C(F)(F)F)ccc3n3cccc23)CC1 under Hoechst total cell count ratio: 1.39 ± 0.029
# Value of CC(=O)N[C@H]1[C@H]([C@H](O)[C@H](O)CO)OC(C(=O)O)=C[C@@H]1NC(=N)N [Zanamivir hydrate] under Hoechst total cell count ratio: 1.05 ± 0.085

# From the supplement of paper PMC7238544
